Some of these results come from one statement about several compounds together.
System: M. tuberculosis
Assay: Checkerboard combination of Compound 23A with approved TB agents, FIC index, broth culture
Type: cell-based
Conditions: label = partner drug combined with Compound 23A, broth culture and intracellular

## CC(C)/N=c1\cc2n(-c3ccc(Cl)cc3)c3ccccc3nc-2cc1Nc1ccc(Cl)cc1 [Clofazimine, N,5-bis(4-chlorophenyl)-3-(propan-2-ylimino)-3,5-dihydrophenazin-2-amine]
  effect of co-administration with Compound 23A (FIC index class): synergistic (synergistic if the index is less than 0.5)

## COc1nc2ccc(Br)cc2cc1[C@@H](c1ccccc1)[C@@](O)(CCN(C)C)c1cccc2ccccc12 [TMC207, (1R,2S)-1-(6-Bromo-2-methoxy-3-quinolyl)-4-dimethylamino-2-(1-naphthyl)-1-phenyl-butan-2-ol]
  effect of co-administration with Compound 23A (FIC index class): synergistic (synergistic if the index is less than 0.5)
